# Primary screen of a compound library

Protein sequences, listed by entry. Tags and fused reporters are not part of them.
UniProt E9BF75, entry or part of it: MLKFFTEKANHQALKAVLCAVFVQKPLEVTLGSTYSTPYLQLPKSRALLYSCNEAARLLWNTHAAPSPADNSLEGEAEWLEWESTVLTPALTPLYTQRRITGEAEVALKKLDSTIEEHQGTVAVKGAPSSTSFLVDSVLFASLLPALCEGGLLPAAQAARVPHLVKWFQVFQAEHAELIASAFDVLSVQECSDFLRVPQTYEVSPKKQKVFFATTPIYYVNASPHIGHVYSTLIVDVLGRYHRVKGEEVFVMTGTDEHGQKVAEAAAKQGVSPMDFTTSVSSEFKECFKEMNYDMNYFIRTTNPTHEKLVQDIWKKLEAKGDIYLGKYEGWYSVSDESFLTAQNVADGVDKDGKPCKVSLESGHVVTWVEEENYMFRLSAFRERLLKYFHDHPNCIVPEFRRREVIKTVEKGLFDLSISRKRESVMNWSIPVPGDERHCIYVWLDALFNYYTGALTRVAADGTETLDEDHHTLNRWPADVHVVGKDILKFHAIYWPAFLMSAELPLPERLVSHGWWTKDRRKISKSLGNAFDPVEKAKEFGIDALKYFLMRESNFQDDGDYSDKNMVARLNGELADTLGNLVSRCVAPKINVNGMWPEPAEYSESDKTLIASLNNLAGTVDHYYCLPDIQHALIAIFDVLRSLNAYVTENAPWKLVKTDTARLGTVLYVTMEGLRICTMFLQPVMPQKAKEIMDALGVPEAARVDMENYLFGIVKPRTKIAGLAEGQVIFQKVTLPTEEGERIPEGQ

Source: ChEMBL document CHEMBL3988442, “University of Dundee, Small-Polar-MMV Screening Library” (2021).

LdMetRS: 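Methionyl-tRNA synthetase (putative), Leishmania donovani (UniProt E9BF75). Primary screen of methionyl-tRNA synthetase; the read-out is not stated. The test concentration is not given. Values are per cent inhibition. Of about 68,000 compounds tested this way, about 24 (0.035%) reached 50% or more in at least one test.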
Mtb heat-shock: 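Assay on Mycobacterium tuberculosis, filed only as a heat shock assay from Cornell; the read-out is not stated. The concentration is filed as 10 mM, unlikely as a test dose, so the dose is not known. The record gives no direction; compounds that gave an IC50 in retests scored well above the rest, so higher reads as stronger inhibition. Size under these conditions: about 69,000 compounds, about 930 of them at 50% or above in at least one test.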

All values are in %.
The controls that fix the scale are not given in the record; negative values are as filed.
The compounds are a random part of those screened.
A dash means the value is not listed here; it may have been measured.

Compound,LdMetRS,Mtb heat-shock
CCn1cnnc1CNC(=O)NC(C)C(C)C (centres unmarked),14.98%,4.707%
Cc1c[nH]c(C(=O)N2C[C@H]3CC[C@@H]2CN(Cc2cscn2)C3)n1,17.43%,-
CC(=O)N1CCCC1c1cccc(Cc2ccccc2F)n1 (centres unmarked),1.027%,-21.24%
CC(=O)N1CCCC(Cc2nccn2C)C1 (centres unmarked),11.06%,-10.66%
CCOc1cc(C)ccc1NC(=O)N(C)Cc1cnn(C)c1,15.03%,13.93%
N#Cc1ccc(CNC(=O)NC2CCCN(c3ncccn3)C2)cc1 (centres unmarked),10.44%,26.58%
CCn1cc(N2Cc3nc(N(C)C)ncc3C2=O)cn1,0.7538%,8.315%
Cc1cnc2n(c1=O)C(CC(=O)NCc1ccco1)CS2 (centres unmarked),12.96%,24.32%
N#Cc1ccc(OC2CCN(C(=O)c3cncc(Br)c3)CC2)nc1,5.944%,-32.62%
O=C1CC2(CCCC2)CC(=O)N1Cc1ncccn1,5%,3.232%
O=C(NCC1CCCO1)c1nc2c(s1)CCCN2C(=O)C1CC1 (centres unmarked),15.07%,-2.093%
O=C(O)C(F)(F)F.c1cnc(N2CCC3(CC2)CN(CC2CC2)c2ccccc23)nc1,-,54.56%
FC(F)(F)c1cccc(N2CCC(NCc3cccnc3)CC2)c1,8.541%,-17.38%
[H][C@@]12CS(=O)(=O)C[C@]1([H])N(C(=O)c1cc(C(C)C)on1)CCN2CCOC,-,11.23%
COC(=O)[C@@H](NC(=O)c1coc(COc2cccc(F)c2F)n1)C(C)C,4.902%,10.39%
CC(Cn1cccn1)NCc1ccc(OCc2ccncc2)cc1 (centres unmarked),19.77%,-3.58%
CN1CCN(c2ccccc2NC(=O)NCCc2ccccc2)CC1,16.42%,-40.41%
COCc1nc(-c2ccc(S(=O)(=O)N3CCCC3)cc2)cs1,9.091%,8.751%
CCc1ccc(OCC(O)CN2CCN(CC)CC2)cc1 (centres unmarked),0%,-14.89%
CN1CC=C(c2noc(CCC(=O)N3CCc4ccccc43)n2)CC1,17.49%,-22.77%
O=C1CSC(c2cccnc2)c2c(n(C3CCOCC3)[nH]c2=O)N1 (centres unmarked),16.06%,5.858%
CCN1CCNC(=O)C12CCN(C(=O)Cc1ccsc1)CC2,8.242%,18.61%
COc1ccc(C(N)c2cccc(S(C)(=O)=O)c2)cc1 (centres unmarked),20.28%,4.975%
Cc1csc2c(=O)n(C(C)Cc3cccnc3)cnc12 (centres unmarked),17.1%,-9.686%
COc1ccc(F)c(NCC(C)(C)S(C)(=O)=O)c1,11.02%,-11.45%
O=C(Nc1ccc(F)cc1)N1CCC2(CCC(=O)N(C3CC3)C2)CC1,7.494%,-13.8%
c1cnc(NC[C@H]2OC[C@@H]3CCN(Cc4cccnc4)C[C@@H]32)nc1,15.62%,-
O=C(O)C(F)(F)F.O=C(O)C(F)(F)F.[H][C@@]12OCCC[C@]1([H])N(Cc1cccc(C)n1)C[C@@H]2NS(C)(=O)=O,-,2.564%
CC(C)c1nnsc1CNC(=O)C1CCN(C(=O)C2CC2)CC1,4.482%,-31.17%
O=C(O)C(F)(F)F.c1ccn(Cc2nnc3n2CCCN(Cc2ccoc2)C3)c1,-,-15.36%
O=C(Nc1nc2c(s1)CNCC2)C1CC1,-0.271%,-
O=C(O)CNc1cc(-c2cc(C(=O)NC3CC3)ccn2)c2cc[nH]c2n1,11.25%,-16.73%
CCc1ccc(CN2CCC3(CC(C(=O)NCC(C)C)=NO3)C2)o1 (centres unmarked),3.279%,36.06%
CC(C)NC(=O)C1CCN(Cn2ccc(-c3ccc(F)cc3)n2)CC1,1.882%,-34.5%
CC(=O)c1ccc(S(=O)(=O)NCc2cccnc2N(C)C)cc1,25.07%,-9.258%
COCCCN1C(=O)CC[C@H]2CN(Cc3ccc4occc4c3)CC[C@H]21,9.375%,-
[H][C@@]12CS(=O)(=O)C[C@]1([H])N(C(=O)c1cc(C(C)C)no1)CCN2C(C)=O,-,11.56%
CC(C)N1CCCC1c1nc(N(C)C)ncc1I (centres unmarked),15.56%,-7.722%
CCc1cc(NCc2cccnc2N2CCCCC2)n2ncnc2n1,11.82%,-20%
CCOCCCNC(=O)c1cc(C(C)C)nc(N2CCCCCC2)n1,5.394%,-16.03%
CC(c1ccc(F)cc1F)N1CCN(CCC(=O)O)CC1.Cl (centres unmarked),-,-24.55%
O=C(O)C(F)(F)F.[H][C@@]12CCN(CCc3ccccc3)C[C@@]1([H])[C@H](C(=O)NC)CCO2,-,-28.55%
COCCn1ccnc1C1CCN(C(=O)CSc2nnc(C)s2)CC1,12.61%,-4.765%
O=C(O)c1ccc(S(=O)(=O)Nc2cnn(CC(F)(F)F)c2)cc1,15.33%,1.879%
CN(C)Cc1ccnc(C2CCCN2Cc2ccc(F)cn2)n1 (centres unmarked),13.56%,-25.04%
Cc1cc(C(F)(F)F)nc(C2CCCN2S(C)(=O)=O)n1 (centres unmarked),16.82%,5.028%
CC(C)C(C)(C#N)NC(=O)Cn1nnc(-c2cc3ccccc3o2)n1 (centres unmarked),11.54%,-17.75%
CN1CCOC(C(=O)Nc2nc(-c3ccc(Cl)cc3)n[nH]2)C1 (centres unmarked),7.521%,-3.814%
c1ccc(N2CCOC3(CCCN(c4nncs4)C3)C2)nc1 (centres unmarked),20.59%,-
CC(C1CC1)N(C)Cc1nnc(-c2ccc(Br)s2)o1 (centres unmarked),9.929%,29.62%

For reference, 5 entries once more:

Compound,LdMetRS,Mtb heat-shock
Cc1cc(C(F)(F)F)nc(C2CCCN2S(C)(=O)=O)n1 (centres unmarked),16.82%,5.028%
COCc1nc(-c2ccc(S(=O)(=O)N3CCCC3)cc2)cs1,9.091%,8.751%
CCc1cc(NCc2cccnc2N2CCCCC2)n2ncnc2n1,11.82%,-20%
CN(C)Cc1ccnc(C2CCCN2Cc2ccc(F)cn2)n1 (centres unmarked),13.56%,-25.04%
CCN1CCNC(=O)C12CCN(C(=O)Cc1ccsc1)CC2,8.242%,18.61%